# Screening data

Source: PubChem BioAssay AID1053133 (Broad Institute, 2014).

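Plate-reader measure of the Venus reporter marking one vaccinia stage in infected cells (the cell line is not named here); read time unknown.
The test concentration is not given here.
Percent change in Venus reporter signal; lower (more negative) values mean stronger inhibition of that viral stage.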

Values are in %.
The controls that fix the scale are not given here.
Common to all entries: measured here: Venus reporter, other viral stage.
Part of the compounds only, not a random draw; the main read-out is not listed here.

compound | activity change (Venus) (%)
COc1ccccc1CN1CC[C@@H]2[C@H]1c1cc(C3=CCCCC3)ccc1N[C@@H]2CO | -62.41
COc1ccc(NC(=O)Nc2cccc3c2O[C@@H](CN(C)S(=O)(=O)c2ccc(Cl)cc2)[C@@H](C)CN([C@H](C)CO)C3=O)cc1 | -30.75
COc1ccc(CN(C)C[C@@H]2OCCCC[C@H](C)Oc3ccc(NS(=O)(=O)c4ccc(F)cc4)cc3C(=O)N([C@@H](C)CO)C[C@@H]2C)cc1 | -43.4
C[C@@H]1CN([C@H](C)CO)C(=O)Cc2cc(NC(=O)Cc3ccccc3)ccc2O[C@@H]1CN(C)Cc1ccc(-c2ccccc2)cc1 | -36.93
COc1ccc2c3c(n(C)c2c1)[C@@H](CO)N(C(C)=O)CC31CN(Cc2ccc(Cl)cc2)C1 | -58.8
Cc1ccccc1-c1ccc2c(c1)O[C@@H](CN(C)Cc1ccncc1)[C@@H](C)CN([C@@H](C)CO)S2(=O)=O | -50.16
C[C@@H]1CCCCO[C@@H](CN(C)CC2CCCCC2)[C@H](C)CN([C@H](C)CO)C(=O)c2cc(NS(=O)(=O)c3ccc(F)cc3)ccc2O1 | -59.13
COc1cccc(NC(=O)N[C@@H]2CC[C@H](CC(=O)Nc3ccc(-c4ccccc4)cc3)O[C@@H]2CO)c1 | -40.8
CNC[C@@H]1Oc2cc(C#CC3CCCC3)ccc2S(=O)(=O)N([C@@H](C)CO)C[C@@H]1C | -51.65
CCCNC(=O)c1cc2c(c(-c3cccc(-c4cccc(F)c4)c3)n1)[C@@H](CCO)N([S@](=O)C(C)(C)C)C2 | -18.24
CCCC#Cc1ccc2c(c1)O[C@H](CN(C)CC1CCOCC1)[C@@H](C)CN([C@@H](C)CO)S2(=O)=O | -57.17
COc1cccc(C#Cc2ccc3c(c2)O[C@@H](CN(C)C(C)=O)[C@@H](C)CN([C@@H](C)CO)S3(=O)=O)c1 | -29.03
C[C@@H]1CCCCO[C@H](CN(C)S(=O)(=O)c2ccc(Cl)cc2)[C@H](C)CN([C@@H](C)CO)C(=O)c2cc(NC(=O)CCC(F)(F)F)ccc2O1 | -25.88
CCN(C[C@@H]1N[C@@H](CO)[C@H]1c1ccc(-c2cccc(F)c2)cc1)C(=O)CN(C)C | -59.72
CCCC#Cc1ccc([C@H]2[C@@H](CO)N(C(C)=O)[C@H]2CN(C)C(=O)C2CC2)cc1 | -25.69
CCS(=O)(=O)N1CC(=O)N2[C@H](CO)[C@@H](c3ccc(C#CCC4CCCC4)cc3)[C@@H]2C1 | -33.82
O=C(C[C@@H]1C[C@H]2c3cc(NC(=O)Nc4ccc(C(F)(F)F)cc4)ccc3O[C@H]2[C@H](CO)O1)NCc1ccc(Cl)cc1 | -58.28
C[C@H]1CN([C@@H](C)CO)C(=O)c2cccc(NC(=O)c3nc4ccccc4s3)c2O[C@H]1CN(C)C(=O)NC1CCCCC1 | -27.7
O=C(c1cccc(F)c1)N1CCCCN2[C@H](CO)[C@H](c3ccc(-c4ccccc4)cc3)[C@H]2C1 | -40.46
Cc1ccccc1-c1ccc([C@@H]2[C@H](CO)N3CCCCN(C(=O)NC4CCCC4)C[C@@H]23)cc1 | -73.22
C[C@@H]1CN([C@H](C)CO)C(=O)c2c(c3ccccc3n2C)-c2ccccc2CO[C@H]1CN(C)S(=O)(=O)c1ccc(F)cc1 | -48.98
COc1ccc(NC(=O)N2CCCCN3[C@@H](CO)[C@H](c4ccc(C#CCC(C)C)cc4)[C@@H]3C2)cc1 | -58.47
C[C@H]1CN([C@@H](C)CO)C(=O)Cc2cc(NS(=O)(=O)c3ccc(Cl)cc3)ccc2O[C@@H]1CN(C)Cc1ccc(Cl)c(Cl)c1 | -32.98
COc1ccccc1-c1cnc2c(c1)C(=O)N([C@@H](C)CO)C[C@H](C)[C@@H](CN(C)Cc1ccc(F)cc1)O2 | -32.6
N#C[C@H]1[C@H](c2ccc(C3=CCCCC3)cc2)[C@@H](CO)N1C(=O)NC1CCCCC1 | -31.15
C[C@@H]1CCCCO[C@@H](CN(C)Cc2ccc3c(c2)OCO3)[C@H](C)CN([C@H](C)CO)C(=O)c2cc(NC(=O)Nc3ccc(C(F)(F)F)cc3)ccc2O1 | -20.35
CN1C(=O)c2cc(NC(=O)c3cccc(F)c3)ccc2OC[C@@H]2O[C@H](CC(=O)NCC3CCCCC3)CC[C@@H]21 | -36.99
C[C@@H]1CN([C@@H](C)CO)S(=O)(=O)c2ccc(C3=CCCCC3)cc2O[C@H]1CN(C)S(=O)(=O)c1ccc(F)cc1 | -35.54
C[C@H]1CN([C@@H](C)CO)C(=O)c2cc(C#CC3CCCCC3)cnc2O[C@H]1CN(C)C(=O)NC1CCCC1 | -40.05
O=S(=O)(N[C@@H]1CCCN(Cc2ccc(OCCO)cc2)C1)c1ccc2ccccc2c1 | -36.65
O=C(C1CCCC1)N1CC[C@H]2[C@H](CO)Nc3ccc(C#Cc4ccc(F)cc4)cc3[C@H]21 | -72.14
O=C(CC(F)(F)F)N1C[C@@H]2[C@H](c3ccccc31)[C@@H](CO)N2CC1CCCCC1 | -44.71
C[C@@H]1CN([C@@H](C)CO)C(=O)c2cc(C#Cc3ccc(F)cc3)cnc2O[C@H]1CN(C)C(=O)Nc1ccc(F)cc1 | -32.67
C[C@@H]1CCCCO[C@@H](CN(C)Cc2ccc(C(F)(F)F)cc2)[C@@H](C)CN([C@@H](C)CO)C(=O)c2cc(NS(=O)(=O)c3ccccc3)ccc2O1 | -46.75
C[C@H]1CN([C@@H](C)CO)S(=O)(=O)c2ccc(C#CC3CCCC3)cc2O[C@H]1CN(C)C(=O)Nc1cc(F)ccc1F | -54.83
COc1cccc(CN2C[C@@H]3N[C@H](C2)C3c2ccc(-c3ccccc3OC)cc2)c1 (stereo not given in full) | -24.5

The last 5 entries again:

O=C(CC(F)(F)F)N1C[C@@H]2[C@H](c3ccccc31)[C@@H](CO)N2CC1CCCCC1 gave activity change (Venus) -44.71%.
C[C@@H]1CN([C@@H](C)CO)C(=O)c2cc(C#Cc3ccc(F)cc3)cnc2O[C@H]1CN(C)C(=O)Nc1ccc(F)cc1 gave activity change (Venus) -32.67%.
C[C@@H]1CCCCO[C@@H](CN(C)Cc2ccc(C(F)(F)F)cc2)[C@@H](C)CN([C@@H](C)CO)C(=O)c2cc(NS(=O)(=O)c3ccccc3)ccc2O1 gave activity change (Venus) -46.75%.
C[C@H]1CN([C@@H](C)CO)S(=O)(=O)c2ccc(C#CC3CCCC3)cc2O[C@H]1CN(C)C(=O)Nc1cc(F)ccc1F gave activity change (Venus) -54.83%.
COc1cccc(CN2C[C@@H]3N[C@H](C2)C3c2ccc(-c3ccccc3OC)cc2)c1 (stereo not given in full) gave activity change (Venus) -24.5%.